{"sequences": {"note": "Chains of the proteins cited; added tags and fusions are not shown.", "UniProt Q13148": "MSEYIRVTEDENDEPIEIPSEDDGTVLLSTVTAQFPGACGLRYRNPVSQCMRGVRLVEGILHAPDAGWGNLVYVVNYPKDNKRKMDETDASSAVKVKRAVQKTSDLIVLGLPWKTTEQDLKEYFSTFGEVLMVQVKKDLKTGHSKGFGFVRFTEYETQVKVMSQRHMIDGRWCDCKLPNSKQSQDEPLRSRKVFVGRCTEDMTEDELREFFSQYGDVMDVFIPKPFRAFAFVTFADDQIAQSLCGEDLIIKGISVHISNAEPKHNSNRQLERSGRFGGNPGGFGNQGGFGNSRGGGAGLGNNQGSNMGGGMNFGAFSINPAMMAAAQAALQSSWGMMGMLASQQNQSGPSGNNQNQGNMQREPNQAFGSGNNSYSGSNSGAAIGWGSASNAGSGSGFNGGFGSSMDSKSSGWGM"}, "source": "paper PMC8722725", "biological_target": "T1, GFP-tagged SIRT2 (SIRT2-GFP), wild type (UniProt Q8IXJ6)", "T1 sequence": "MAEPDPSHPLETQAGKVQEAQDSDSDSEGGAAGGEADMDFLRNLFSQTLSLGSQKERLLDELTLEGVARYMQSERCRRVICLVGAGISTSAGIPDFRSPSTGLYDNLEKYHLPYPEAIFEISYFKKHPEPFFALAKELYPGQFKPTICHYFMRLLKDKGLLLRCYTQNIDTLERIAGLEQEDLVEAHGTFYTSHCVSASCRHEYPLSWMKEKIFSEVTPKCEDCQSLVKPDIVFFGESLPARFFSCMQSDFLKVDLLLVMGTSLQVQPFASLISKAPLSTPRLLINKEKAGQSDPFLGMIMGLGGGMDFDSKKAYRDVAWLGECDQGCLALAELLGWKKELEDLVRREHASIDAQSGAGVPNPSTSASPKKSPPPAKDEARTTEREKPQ", "assay": "co-IP; GFP-Trap agarose beads on lysate of isolated HeLa nuclei (MNase digestion, RIPA); cells uninfected or infected with L. monocytogenes for 3 hours; also in HeLa stably expressing SIRT2-GFP and transfected with mCherry or RNaseH1; washes up to 300 mM NaCl; blot for TDP-43 and GFP", "note": "No constants are given. Whether binding was seen depends on the method and setting. Binding seen in cells or lysates may run through a third protein. Some entries that bind do so weakly or less than the wild type. Sequences can lack the tags named with a protein.", "data": [{"substance": "TDP-43 (endogenous, nuclear) (from UniProt Q13148 1-414)", "values": [{"measurement": "binding", "value": "binds"}]}]}
